Reference: US9132131B2, “Use of adenosine A3 receptor agonists for treatment of neuropathic pain” (Saint Louis University, priority 2011, dated 2015)
Some of these results come from one statement about several compounds together. For part of these data: At least one structure is not confirmed: it was looked up by name or label, or the drawing left a doubt.

Tests used:
[1] = subjects receiving the drug; cited from earlier work
[2] = tested on: CCI of the sciatic nerve (mechano-allodynia); assay: CCI model of neuropathic pain, mechano-allodynia (von Frey PWT); assay type: in vivo, mice
Protocol: CCI model of neuropathic pain. CCI to the sciatic nerve of the left hind leg in mice was performed under general anaesthesia using the well-characterized Bennett model. Briefly, mice (weighing 25-30 g at the time of surgery) were anesthetized with 3% isoflurane/100% O2 inhalation and maintained on 2% isoflurane/100% O2 for the duration of surgery. The left thigh was shaved, scrubbed with Nolvasan® and a small incision (1-1.5 cm in length) was made in the middle of the lateral aspect of the left thigh to expose the sciatic nerve. The nerve was loosely ligated around the entire diameter of the nerve at three distinct sites (spaced 1 mm apart) using silk sutures (6.0). The surgical site was closed with a single muscle suture and a skin clip. Pilot studies established that under our experimental conditions peak mechano-allodynia develops by day 5-day 7 (D5-D7) following CCI. […]
Behavioral testing. […] Mechanical threshold was assessed three times at each time point to yield a mean value, reported as PWT (grams). […] Mechano-hyperalgesia was assessed in rats by the Randall and Sellitto paw pressure test using an analgesiometer (Ugo Basile). […]
Statistical Analysis. Data are expressed as mean±SD for n animals. Behavioral data were analyzed by two-way repeated measures ANOVA with Bonferroni comparisons (full time course studies) or one-way ANOVA Dunnett's comparisons (1 hour behavioral data). […]

CC[C@]1(O)C[C@H]2CN(CCc3c([nH]c4ccccc34)[C@@](C(=O)OC)(c3cc4c(cc3OC)N(C=O)[C@H]3[C@@](O)(C(=O)OC)[C@H](OC(C)=O)[C@]5(CC)C=CCN6CC[C@]43[C@@H]65)C2)C1 [vincristine]
incidence of CIPN [1]: 70-90%

CNC(=O)[C@]12C[C@@H]1[C@@H](n1cnc3c(NCc4cccc(I)c4)nc(Cl)nc31)[C@H](O)[C@@H]2O [MRS1898, (1′R,2′R,3′S,4′R,5′S)-4-{2-chloro-6-[(3-iodophenylmethyl)amino]purin-9-yl}-1-(methylaminocarbonyl)-bicyclo[3.1.0]hexane-2,3-diol]
time of maximal reversal of mechano-allodynia ([2]; after single administration on D7): ≤ 1 h

CN(C)CCC=C1c2ccccc2CCc2ccccc21 [amitriptyline]
onset of reversal of mechano-allodynia ([2]; gabapentin i.p., amitriptyline oral on D7): ≤ 0.5 h
